# Measured data: PubChem BioAssay AID1259306 (Sanger Institute, 2017)
# Purpose: 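Find kinases whose loss reduces colorectal cancer cell viability or aids targeted drugs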 (primary screen)
# Cell system: human SNU-C5 colorectal cancer cells
# Knock-down reagent: siRNA pool against human genes
# Treatment: DMSO vehicle alone, or one anchor drug: BYL719 at 1 µM, cetuximab at 5 µg/ml or trametinib at 10 nM, given 24 h into the assay
# Measurement: 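Replicate-averaged viability against non-targeting pool control, given as fraction and robust z-score; separate synergy scores for BYL719, cetuximab and trametinib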
# Scale: robust z-score, knock-down alone and viability, knock-down alone: higher = more viable cells
# Call rule: 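Called essential when the robust z-score for knock-down alone is below -3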
# Calls: active = essential (knock-down alone); inactive = no change alone
# Shown is an unselected part of 794 reagents. 11 of them (1.4%) count as active. 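Calls reflect knock-down alone; synergy scores play no part, so knock-downs synergising with a drug can be called no change.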 Entries without a mark were called inactive. No viability above 1 is reported: the scale is capped. Not all columns of the deposit are shown. Not given: the amount of reagent, the time to read-out.
target,"robust z-score, knock-down alone","viability, knock-down alone"
BRWD1,-1.26,0.69
TK2,0.989,1
ACO1,-2.1,0.574
GRK3,0.914,0.99
GUCY2F,0.989,1
MAPK11,0.802,0.974
PDGFRB,-1.06,0.717
EPHA7,-3.03 (active),0.446
MAP3K11,-0.436,0.804
RET,0.989,1
TYRO3,0.989,1
GUCY2C,0.989,1
NTRK3,0.989,1
PRKY,-1.05,0.719
CSK,0.308,0.906
AK4,0.482,0.93
CLK1,0.758,0.968
LIMK1,0.989,1
PKM,0.000327,0.864
GALK1,-2.09,0.576

A few values from the list:
AK4, robust z-score, knock-down alone: 0.482
GUCY2C, robust z-score, knock-down alone: 0.989
